Non-standard residues stand in square brackets, D forms with d. Arg(Me) = CNC(=N)NCCC[C@H](N)C(=O)O; Dap = NC[C@H](N)C(=O)O; azaGly = NNC(=O)O
Key:
[1] = general procedure: Fmoc solid-phase peptide synthesis; Rink Amide MBHA resin; DIPCDI/HOAt; PyAOP/HOAt/DIEA; PyBrop/HOAt; details: whole synthesis
[2] = general procedure: Fmoc solid-phase peptide synthesis; Rink Amide MBHA; DIPCDI/HOAt; PyAOP/HOAt/DIEA; PyBrop/HOAt; details: whole synthesis
[3] = general procedure: Fmoc solid-phase peptide synthesis; 2-chlorotrityl chloride; DIPCDI/HOAt; PyAOP/HOAt/DIEA; PyBrop/HOAt; details: whole synthesis
[4] = general procedure: Fmoc solid-phase peptide synthesis; Rink amide MBHA; DIPCDI/HOAt; PyAOP/HOAt/DIEA; PyBrop/HOAt; details: whole synthesis, scale 15 μmol

Substance “Ac-D-Tyr(^tBu)-D-Trp(Boc)-Dap(Mtt)-Ser(^tBu)-Phe-AzaGly-Leu-Arg(Boc2,Me)-Trp(Boc)-Rink Amide MBHA resin” has an isolated mass ([1]; scale 0.257 mmol, acetate) of 58.3 mg.

For “Ac-D-Tyr-D-Pya(4)-Asn-Thr-Phe-AzaGly-Leu-Arg(Me)-Trp-NH2”, the crude mass ([2]; scale 1 mmol) was 949.0 mg, the isolated mass ([2]; scale 1 mmol, TFA salt) was 361.1 mg and the isolated mass ([2]; scale 1 mmol, acetate) was 309.3 mg.

In the case of “Ac-D-Tyr-D-Trp-Alb-Ser-Phe-AzaGly-Leu-Arg(Me)-Trp-NH2”, the isolated mass ([2]; scale 0.257 mmol, TFA salt) is reported as 106.5 mg and the isolated mass ([2]; scale 0.257 mmol, acetate) is reported as 97.5 mg.

For Ac-[dY][dW]NTF[azaGly]L[Arg(Me)]W-NH2, the crude mass ([2]; scale 1 mmol) was “about 650 mg”, the isolated mass ([2]; scale 1 mmol, TFA salt) was 255.5 mg and the isolated mass ([2]; scale 1 mmol, acetate) was 225.3 mg.

Work on “Ac-[dY][dW][Dap]SF[azaGly]L[Arg(Me)]W-NH2” yielded an isolated mass ([1]; scale 0.257 mmol) of 106.5 mg.

“Benzoyl-AzaPhe-AzaGly-Leu-Arg(Me)-Trp-NH2” gave an isolated mass ([2]; scale 0.015 mmol) of 3.2 mg.

With “Boc-D-Tyr(Bu^t)D-Pya(4)Asn(Trt)Ser(Bu^t)PheAzaGlyLeu-OH” the crude yield [3] was 98%.

Substance “Bzl2NCO-AzaGly-Leu-Arg(Boc2,Me)-Trp(Boc)-Rink Amide MBHA resin” has an isolated mass ([2]; scale 0.015 mmol, acetate) of 2.2 mg.

In the case of “des(1)-[D-Tyr2,D-Pya(4)3,AzaGly7,Arg(Me)9,Trp10]MS10”, the isolated mass ([1]; scale 0.03 mmol, acetate) is reported as 6.6 mg.

For “des(1-3)-3-Phenylpropionyl-[AzaGly7,Arg(Me)9,Trp10]MS10”, the isolated mass ([2]; scale 0.05 mmol, acetate) was 5.2 mg.

Substance “des(1-5)-4-Pyridinecarbonyl-[AzaGly7,Arg(Me)9,Trp10]MS10” has an isolated mass ([2]; scale 0.1 mmol, acetate) of 21.6 mg.

“des(1-5)-Benzoyl-[6Ψ7,CH2O,Arg(Me)9,Trp10]MS10” gave an isolated mass [4] of 2.5 mg.

— patent US8778871B2 (Takeda Pharmaceutical Company Limited, priority 2004, dated 2014)
